Measured values as given in patent publication US8637474B2, “Receptor modulators exhibiting neuroprotective and memory enhancing activities” (The Hong Kong University of Science and Technology, priority 2007, dated 2014).
Entries after “also recorded” stand apart in the source; their conditions may differ. At least one compound was matched to its structure with a doubt left.

Amino acid sequences for entries named in this document (tags omitted). A change or cut given only in a name is not applied to a line headed by its entry.
UniProt P48039, whole entry: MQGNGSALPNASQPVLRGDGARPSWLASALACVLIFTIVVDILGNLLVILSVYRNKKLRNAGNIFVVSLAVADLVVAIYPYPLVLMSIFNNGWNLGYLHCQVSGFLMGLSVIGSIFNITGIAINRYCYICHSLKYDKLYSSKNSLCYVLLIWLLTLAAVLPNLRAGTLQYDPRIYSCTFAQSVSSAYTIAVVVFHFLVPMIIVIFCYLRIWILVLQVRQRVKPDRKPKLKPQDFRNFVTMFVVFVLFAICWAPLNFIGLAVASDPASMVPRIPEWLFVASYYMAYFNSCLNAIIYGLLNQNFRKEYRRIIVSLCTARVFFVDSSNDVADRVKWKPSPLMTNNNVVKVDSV
UniProt Q01726: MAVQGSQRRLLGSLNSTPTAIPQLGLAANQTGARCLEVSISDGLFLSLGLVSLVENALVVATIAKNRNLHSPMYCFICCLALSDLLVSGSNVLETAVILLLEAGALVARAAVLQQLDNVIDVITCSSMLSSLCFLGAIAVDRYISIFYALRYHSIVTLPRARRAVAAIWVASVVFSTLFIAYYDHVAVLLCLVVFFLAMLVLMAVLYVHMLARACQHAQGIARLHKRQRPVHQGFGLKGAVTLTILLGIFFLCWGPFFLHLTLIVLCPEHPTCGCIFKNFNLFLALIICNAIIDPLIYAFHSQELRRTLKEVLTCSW
UniProt P32245, whole entry: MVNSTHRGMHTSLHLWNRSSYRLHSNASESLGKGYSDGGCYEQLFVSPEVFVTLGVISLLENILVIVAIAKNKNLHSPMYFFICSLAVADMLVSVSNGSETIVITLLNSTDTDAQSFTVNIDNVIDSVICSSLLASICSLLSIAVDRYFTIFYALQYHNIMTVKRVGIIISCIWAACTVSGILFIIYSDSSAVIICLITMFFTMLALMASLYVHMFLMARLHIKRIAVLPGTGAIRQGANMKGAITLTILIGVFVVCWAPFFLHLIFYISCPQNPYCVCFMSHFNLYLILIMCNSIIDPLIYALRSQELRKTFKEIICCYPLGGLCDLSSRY

Assays:
[1] = system: CREB phosphorylation (Ser 133); test: Western blot detection for CREB phosphorylation; type: cell-based, rat; details: pre-treatment with DA001 (13 μM), then NMDA 50 μM
cortical neurons = test: Axon development (neurite extension) in cortical neurons; type: cell-based, rat; details: DA001 30 μM at 0 DIV for 2 days, vs DMSO
melatonin (MT1) receptor = melatonin (MT1) receptor (Homo sapiens, UniProt P48039); test: Radioligand competition binding assay, MT1; details: MT1, DA001 10 μM, duplicate
Description: (§1) DA001 was evaluated against 109 receptor binding assays and 17 enzyme assays, comprising of selective, central and peripheral therapeutically-relevant targets. Radioligand competition assays were conducted whereby DA001 was tested at one concentration (10 μM) in duplicate. […] It could compete with the radioligand [^125I-NDP-alpha-melanocyte-stimulating hormone (α-MSH)] binding for MC1 and MC4 but not MC3 and MC5 nor the related family, the melanin concentrating hormone receptors (MCH1 and MCH2).

[2] = molecular target: melanocortin-1 (MC1) receptor (Homo sapiens, UniProt Q01726); test: Radioligand competition binding assay, MC1
Description: as §1
(§2) To determine the IC50 for DA001 to inhibit α-MSH binding on MC1 and MC4 receptor, the compound was further characterized by a dose-dependent study. DA001 was evaluated with 8 concentrations on MC1 and MC4 receptor binding assays.
(§3) The specific ligand binding to the receptors is defined as the difference between the total binding and the nonspecific binding determined in the presence of an excess of unlabelled ligand. The results are expressed as a percent of control specific binding [(measured specific binding/control specific binding)×100] and as a percent inhibition of control specific binding {100−[(measured specific binding/control specific binding)×100]} obtained in the presence of DA001. […]

MCAO rats = test: Middle carotid artery occlusion model (MCAO); type: in vivo, rat; details: DA001 12.6 mg/kg, 6 h post-ischemia P.O.
[3] = molecular target: melanocortin-4 (MC4) receptor (Homo sapiens, UniProt P32245); test: Radioligand competition binding assay, MC4
Description: as §1, §2, §3

`C=C(C)[C@@H]1CC[C@]2(C(=O)O)CC[C@]3(C)C(CC[C@@H]4[C@@]5(C)CC[C@H](O[C@@H]6OC[C@H](O)[C@H](O)[C@H]6O[C@@H]6O[C@@H](C)[C@H](O)[C@@H](O)[C@H]6O)[C@@](C)(CO)[C@@H]5CC[C@]43C)[C@@H]12` (stereo partly drawn) [DA001, 3-O-[α-L-rhamnopyranosyl-(1→2)-α-L-arabinopyranosyl]-3,23-dihydroxy-20(29)-lupen-28-oic acid] was tested, and the CREB phosphorylation [1] was “induced long lasting CREB phosphorylation; also recorded: long-lasting CREB phosphorylation at a similar level to SA”, the length of axons (cortical neurons) was “significantly promotes the length of axons” and the “% inhibition of control specific binding” value (melatonin (MT1) receptor) was “Moderate to mild inhibition”. For the same molecule, the “% inhibition of control specific binding” value ([2]; MC1, DA001 10 μM, duplicate, 125I-NDP-α-MSH) was “significantly inhibits”, the nH ([2]; MC1, Hill coefficient) was 0.9 and the “infarct volume / total infarction” value (MCAO rats) was “effectively reduced infarct volume; also recorded: significantly decrease”. The “% inhibition of control specific binding” value ([3]; MC4, DA001 10 μM, duplicate, 125I-NDP-α-MSH) was “significantly inhibits” and the nH ([3]; MC4, Hill coefficient) was 1.3.
